# Assay results published in patent publication US5281626A, “Benzenesulfonamide derivatives” (Eisai Co., Ltd., priority 1990, dated 1994).
# For at least one compound, name, drawing or mass did not settle the structure.
# Tests used:
# [1] = system: phospholipase A2 (PLA2) contained in the supernatant fraction of rabbit heart; assay: Inhibitory activity against phospholipase A2 (PLA2) contained in the supernatant fraction of rabbit heart; assay type: biochemical; settings: EGTA added, 37° C., 5 minutes
# Method: (§1) A. Inhibitory activity against phospholipase A2 (PLA2) contained in the membrane fraction of rabbit heart or the supernatant fraction thereof (method) An NZW male rabbit was anesthetized by the intravenous administration of pentobarbital sodium to take out its heart. This heart was washed with ice cooled physiological saline to recover a ventricle, followed by the addition of ice-cooled 0.25M sucrose/20 mM tris hydrochloride buffer (pH: 8.0) in an amount of 5 ml per g of the ventricle. The obtained mixture was mashed with a homogenizer in ice water for 30 minutes and centrifuged at 1,000 g for 10 min. The supernatant was further centrifuged at 105,000 g for 60 min. The centrifugation was conducted at 0° to 4° C. The obtained supernatant was used as such as the supernatant fraction for examination. The precipitate was suspended in the same buffer as that described above and used as the membrane fraction for examination. The protein concentrations of these fractions were each adjusted to 5 mg/ml as determined by Lowry method. […] The test tubes of the membrane fraction were kept at 37° C. for 30 minutes for incubation, while those of the supernatant fraction were kept at 37° C. for 5 minutes for incubation. Each incubation was stopped by the addition of 1 ml of Dole reagent. […] The amount of ^14 C was determined with a liquid scintillation counter. […]
# [2] = system: phospholipase A2 (PLA2) contained in the membrane fraction of rabbit heart; assay: Inhibitory activity against phospholipase A2 (PLA2) contained in the membrane fraction of rabbit heart; assay type: biochemical; settings: CaCl2 added, 37° C., 30 minutes
# Method: as §1
smiles,measurement,setting,value
"CN(C(=O)/C=C/c1ccc(S(C)(=O)=O)cc1)c1ccc(S(=O)(=O)N2CCCN(CCc3ccccc3)CC2)cc1 [Example 7, (E)-N-methyl-N-{4-[4-(2 phenylethyl)-homopiperazinyl]sulfonylphenyl}-3-(4-methylsulfonylphenyl)-2-propenamide]","PLA2 -inhibitory activity IC30, supernatant fraction",[1],> 100 µM
same,"PLA2 -inhibitory activity IC30, membrane fraction",[2],0.018 µM
